Data as given in patent publication US7041131B2, “Bioengineered vascular graft support prostheses” (Organogenesis, Inc., priority 1998, dated 2006).
At least one compound was matched to its structure with a doubt left. No end group written: not given here.

Key:
[1] = tested on: tube supported vein grafts; test: Isometric tension studies on rings of tube supported vein grafts; parameters: species or system New Zealand male white rabbits; settings: day 28 tube supported vein grafts, tube removed; mean±s.e.m, n=5
Description: (§1) Twenty-nine New Zealand male white rabbits underwent interposition bypass grafting of the right common carotid artery using the reversed ipsilateral jugular vein. In the experimental group (n=15), once the proximal anastomosis was performed, the vein was passed through a collagen tube having dimensions of 4 mm in diameter and 35 to 40 mm in length and the distal anastomosis was then completed. Leaks were repaired and the collagen tube was fashioned to completely cover the vein graft, including both anastomoses. Control animals (n=14) were treated identically but without tube support. […] Postoperatively, the flow rate and intraluminal pressure in vein grafts were measured on either day 3 or 28 (n=5 per group). […]
(§2) Vein grafts were sectioned into four 5 mm rings. […] In brief, following equilibration, the resting tension was adjusted in increments from 0.5 to 1.25 gms and the maximal response to a modified oxygenated Krebs solution containing 60 mM KCl, 66.7 mM NaCl, 1.2 mM MgCl2, 2.5 mM CaCl2, 15.4 mM NaHCO3, 1.2 mM KH2PO4 and 5.5 mM glucose was measured to establish a length-tension relationship. […] Relaxation responses to acetylcholine (10^−8 to 10^−4 M), an endothelium dependent agonist, and nitroprusside (10^−8 to 10^−4 M), an endothelium independent agonist, were assessed on rings precontracted with norepinephrine, at the concentration which produced 80% of maximal contraction. […]

control vein grafts = test: Isometric tension studies on rings of control vein grafts; parameters: species or system New Zealand male white rabbits; settings: day 28 control vein grafts without tube support; mean±s.e.m, n=5
Description: as §1, §2

## RPPGFSPFR [Bradykinin, bradykinin]
[1]
  Sensitivity, -log10(EC50): 6.32 ± 0.08
Control vein grafts
  Sensitivity, -log10(EC50): 5.60 ± 0.09
